Assay results reported in paper doi:10.1101/2024.11.13.623522 (bioRxiv, 2024).
Where two headings read alike, the source gives them in different places. These are yes or no findings as the source states them, for the method shown. In cells and extracts the contact can be indirect. Some entries that bind do so weakly or less than the wild type. For part of these data: Sequences can lack the tags named with a protein. Each block holds one molecule with its values, some of them ahead of it.

Amino acid sequences for entries named in this document (tags omitted).
UniProt P02828: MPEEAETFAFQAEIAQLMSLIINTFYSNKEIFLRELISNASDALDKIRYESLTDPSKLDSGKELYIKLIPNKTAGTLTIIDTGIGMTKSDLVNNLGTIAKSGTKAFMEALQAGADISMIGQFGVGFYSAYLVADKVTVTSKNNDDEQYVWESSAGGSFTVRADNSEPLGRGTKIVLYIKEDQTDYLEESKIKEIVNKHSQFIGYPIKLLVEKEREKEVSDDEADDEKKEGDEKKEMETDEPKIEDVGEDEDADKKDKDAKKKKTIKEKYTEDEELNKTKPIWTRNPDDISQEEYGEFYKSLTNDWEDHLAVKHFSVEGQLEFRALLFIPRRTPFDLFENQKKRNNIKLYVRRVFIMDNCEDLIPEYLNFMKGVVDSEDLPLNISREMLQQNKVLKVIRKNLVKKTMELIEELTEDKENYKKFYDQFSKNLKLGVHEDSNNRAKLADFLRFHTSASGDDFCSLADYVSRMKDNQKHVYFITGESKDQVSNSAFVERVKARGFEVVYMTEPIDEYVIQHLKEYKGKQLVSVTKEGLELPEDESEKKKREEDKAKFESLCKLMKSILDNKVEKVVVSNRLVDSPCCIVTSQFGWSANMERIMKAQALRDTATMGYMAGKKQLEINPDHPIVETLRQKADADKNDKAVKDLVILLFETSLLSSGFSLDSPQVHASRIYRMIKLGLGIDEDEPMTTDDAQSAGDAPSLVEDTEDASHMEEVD

Legend:
Experiment in all cases: co-IP
[1] = molecular target: T1, FLAG-tagged Shu (Shu-FLAG) (Drosophila) (UniProt Q9W1I9)
T1 sequence: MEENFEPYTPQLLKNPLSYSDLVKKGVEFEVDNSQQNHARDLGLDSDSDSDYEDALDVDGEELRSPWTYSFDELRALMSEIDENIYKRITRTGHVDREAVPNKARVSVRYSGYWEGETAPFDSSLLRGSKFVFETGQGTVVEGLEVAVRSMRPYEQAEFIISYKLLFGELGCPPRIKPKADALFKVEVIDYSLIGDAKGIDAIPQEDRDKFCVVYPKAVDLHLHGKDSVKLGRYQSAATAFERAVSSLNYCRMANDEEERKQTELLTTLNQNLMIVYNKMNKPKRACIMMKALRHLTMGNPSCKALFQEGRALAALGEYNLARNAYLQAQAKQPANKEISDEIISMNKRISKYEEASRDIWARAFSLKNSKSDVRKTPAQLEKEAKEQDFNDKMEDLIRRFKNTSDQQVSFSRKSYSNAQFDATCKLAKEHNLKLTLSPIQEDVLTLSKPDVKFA

[2] = molecular target: T2, Shu ΔN77-FLAG (Drosophila) (UniProt Q9W1I9)
T2 sequence: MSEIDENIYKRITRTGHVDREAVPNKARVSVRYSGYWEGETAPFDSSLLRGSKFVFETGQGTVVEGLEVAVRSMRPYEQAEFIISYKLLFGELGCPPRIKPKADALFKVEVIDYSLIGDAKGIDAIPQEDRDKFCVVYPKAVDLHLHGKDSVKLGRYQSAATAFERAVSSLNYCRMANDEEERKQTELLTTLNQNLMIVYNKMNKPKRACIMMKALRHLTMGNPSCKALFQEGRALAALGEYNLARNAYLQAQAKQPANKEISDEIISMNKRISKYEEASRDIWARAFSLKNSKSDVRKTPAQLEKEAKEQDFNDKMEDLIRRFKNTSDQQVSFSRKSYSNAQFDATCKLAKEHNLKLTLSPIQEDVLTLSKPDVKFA

[3] = molecular target: T3, Shutdown (Shu), endogenous in OSCs (Drosophila (endogenous in OSCs)) (UniProt Q9W1I9)
T3 sequence: T1 sequence

[4] = molecular target: T1, FLAG-tagged Shu (Shu-FLAG) (Drosophila); remark: listed apart in the source

Molecule: HSP83, endogenous in OSCs (from UniProt P02828 1-717)
binding [1]: no binding

B3: Myc-tagged Piwi (Myc-Piwi) (protein, UniProt Q9VKM1 1-843)
chain: MADDQGRGRRRPLNEDDSSTSRGSGDGPRVKVFRGSSSGDPRADPRIEASRERRALEEAPRREGGPTERKPWGDQYDYLNTRPAELVSKKGTDGVPVMLQTNFFRLKTKPEWRIVHYHVEFEPSIENPRVRMGVLSNHANLLGSGYLFDGLQLFTTRKFEQEITVLSGKSKLDIEYKISIKFVGFISCAEPRFLQVLNLILRRSMKGLNLELVGRNLFDPRAKIEIREFKMELWPGYETSIRQHEKDILLGTEITHKVMRTETIYDIMRRCSHNPARHQDEVRVNVLDLIVLTDYNNRTYRINDVDFGQTPKSTFSCKGRDISFVEYYLTKYNIRIRDHNQPLLISKNRDKALKTNASELVVLIPELCRVTGLNAEMRSNFQLMRAMSSYTRMNPKQRTDRLRAFNHRLQNTPESVKVLRDWNMELDKNVTEVQGRIIGQQNIVFHNGKVPAGENADWQRHFRDQRMLTTPSDGLDRWAVIAPQRNSHELRTLLDSLYRAASGMGLRIRSPQEFIIYDDRTGTYVRAMDDCVRSDPKLILCLVPNDNAERYSSIKKRGYVDRAVPTQVVTLKTTKNRSLMSIATKIAIQLNCKLGYTPWMIELPLSGLMTIGFDIAKSTRDRKRAYGALIASMDLQQNSTYFSTVTECSAFDVLANTLWPMIAKALRQYQHEHRKLPSRIVFYRDGVSSGSLKQLFEFEVKDIIEKLKTEYARVQLSPPQLAYIVVTRSMNTRFFLNGQNPPPGTIVDDVITLPERYDFYLVSQQVRQGTVSPTSYNVLYSSMGLSPEKMQKLTYKMCHLYYNWSGTTRVPAVCQYAKKLATLVGTNLHSIPQNALEKKFYYL
binding [4]: binds
binding [2]: binds

B4: Myc-tagged Armi (Myc-Armi) (protein, UniProt Q6J5K9 1-1188)
chain: MFTYVSKFFTNPDRNREDILESLDRENSFLDQKLMEEKMDQQLKANPNEINGVLSNKIAELTHGLSEMDVSKESSCTARKGVITSLDGDRGVIDKDVLFETKVAEDIILDLHVGCVVEYLTFTTGEAMRVVKVKSILEHSWEDTSQKEIEKAVDNLKNEKPTFFNTETRSVLGLISQRLASSIDVETEYGQLTVELDNIEMNFIPTNGDRVRLECNIQLDDGFVDKQGEILEVTKLFPTRIQEGEKCIVERVYVHMVVLGPETYILKTDLPTGTDLHLGDIVLADLIECQYSKFTRRAIKITPLEKNFGATKLTQQSSMGSSGSGKAVTVTGVNRFITAELWQKESVSLKLTNNLNRTLRLESITVCNDSESQLSVVSPLESKEISSGSEITVTFEIHTQFLGEAIEKYVLNFDLLKVRRVFTVIVCKTKEEVAEAEKRMIAAEALMAPGRNSQERSRFYANQVWCNKVDVIPGQQIVTKRRFVALRLGCFEVPKELRQICLTSERRQEMIKAIEQHYSFLTEPLSIKTYMHRFRLLLHLEEIECFVNFRNYDRDRAHFLRDGEFLTLQIENLAERRPSLVIGDTLRVINPWSDPDSQTTKSYEGIIHKVLFDRILLKFHSSFQEKYNGEDYRLEFYFSRYSFRKQHHAISKIVGVMGEDFLFPSKVTKRENPQLDVYMKDDDMYLYDSKLEWYNQSLNSIQKRAVFNILRGEAENIPYVLFGPPGSGKTMTLIETLLQLVRNLPGARILVGTPSNSSADLVTKRLIDSKALLQGDFIRLVSYNQVEKDLIPPEIMSYCATSDVGAVGSCEDKMMVTESGLKLRCQAKFIGTHRITISTCTTLGNFLQLGFPAGHFTHVLFDEAGQCTEPETMVPIVMLTKKRSQVVLSGDPRQLQSIVTSRIASKMGFSISFLERLLERSPYRKDLQRFPESSGYNPLVLTKLLYNYRALPSIMSIYSRLFYDDELIPVLSEKDSRESRLLSKLRCVFESEKDIPQAHGTFFYGIIGENRQNNDSPSWFNPQEVREVFLMTIALYRANVTADQIGIITPYQKQVKMLRSMFIGTDVVMPKIGSVEEFQGQERDIILISTVRSSEEILRMDARFSLGFVRCSKRLNVAVSRARAMMIIFGNPHLLAVDECWRQLILFCVKNNAYFGCDLPQMVINQKDEVPVCLETFVPSLNTTDDLN
binding [2]: binds

More lines, now with the values ahead:

binding [2]: binds
B1: Shu ΔN77-FLAG (domain or fragment, UniProt Q9W1I9 78-455)
chain: T2 sequence

binding [3]: binds
B2: Piwi, endogenous in OSCs (protein, UniProt Q9VKM1 1-843)
chain: B3 chain
